# Assay results reported in PMC5996148.
# Chains of the proteins cited; added tags and fusions are not shown. Lines headed by an entry give the natural chain unless they say otherwise; changes in a name come on top.
# UniProt P31941: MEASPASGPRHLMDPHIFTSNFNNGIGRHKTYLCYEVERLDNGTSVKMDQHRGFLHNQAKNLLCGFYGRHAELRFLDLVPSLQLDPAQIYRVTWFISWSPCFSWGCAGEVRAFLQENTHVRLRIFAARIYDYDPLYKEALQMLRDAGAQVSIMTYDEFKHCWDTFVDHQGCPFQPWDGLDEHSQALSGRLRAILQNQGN
# UniProt P05067, whole entry: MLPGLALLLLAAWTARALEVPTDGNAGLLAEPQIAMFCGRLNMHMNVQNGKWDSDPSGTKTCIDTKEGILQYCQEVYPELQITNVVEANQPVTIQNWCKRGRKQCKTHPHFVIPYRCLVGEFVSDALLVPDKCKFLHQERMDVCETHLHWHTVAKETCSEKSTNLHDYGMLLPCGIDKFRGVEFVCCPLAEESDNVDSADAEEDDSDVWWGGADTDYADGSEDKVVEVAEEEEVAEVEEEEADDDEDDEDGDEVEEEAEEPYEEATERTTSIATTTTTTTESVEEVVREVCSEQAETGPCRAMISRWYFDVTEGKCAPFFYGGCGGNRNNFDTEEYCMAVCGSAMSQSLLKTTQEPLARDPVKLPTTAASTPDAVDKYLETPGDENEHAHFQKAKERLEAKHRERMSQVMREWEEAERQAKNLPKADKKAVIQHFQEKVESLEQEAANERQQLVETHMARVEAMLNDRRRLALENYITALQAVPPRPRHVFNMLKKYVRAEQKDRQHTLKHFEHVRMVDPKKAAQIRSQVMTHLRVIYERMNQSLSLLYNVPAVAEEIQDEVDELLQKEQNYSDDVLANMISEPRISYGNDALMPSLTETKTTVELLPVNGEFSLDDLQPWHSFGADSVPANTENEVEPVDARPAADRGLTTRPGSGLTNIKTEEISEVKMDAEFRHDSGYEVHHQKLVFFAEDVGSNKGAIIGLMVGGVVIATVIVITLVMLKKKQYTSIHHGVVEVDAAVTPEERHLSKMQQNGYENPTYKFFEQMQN
# Some of the results follow. For some assays here: Construct or isoform of the protein are uncertain.
# Columns and labels:
# Experiment in all cases: protein microarray (ProtoArray v5.0), streptavidin-Alexa Fluor 647
# Conditions in all cases: 3'-biotin; 20 mM Tris (pH 7.5), 5 mM MgCl2, 100 mM KCl, 0.1% Tween-20, A/T-rich and random oligonucleotide blockers; temperature not stated; high values mean tight binding
# APOBEC3A = APOBEC3A (UniProt P31941)
# APOBEC3C = biological target: T1, APOBEC3C (UniProt Q9NRW3)
# T1 sequence: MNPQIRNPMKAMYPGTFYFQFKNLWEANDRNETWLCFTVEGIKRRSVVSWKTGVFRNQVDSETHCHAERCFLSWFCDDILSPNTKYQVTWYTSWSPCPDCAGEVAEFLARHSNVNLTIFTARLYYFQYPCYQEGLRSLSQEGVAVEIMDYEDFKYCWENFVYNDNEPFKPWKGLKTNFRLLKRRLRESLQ
# APOC2 (human) = test system: APOC2 (human)
# APOH (human) = test system: APOH (human)
# APP = APP (UniProt P05067)
# APPL2 (human) = test system: APPL2 (human)
# AQP5 (human) = test system: AQP5 (human)
# AQP8 = biological target: T2, AQP8 (UniProt O94778)
# T2 sequence: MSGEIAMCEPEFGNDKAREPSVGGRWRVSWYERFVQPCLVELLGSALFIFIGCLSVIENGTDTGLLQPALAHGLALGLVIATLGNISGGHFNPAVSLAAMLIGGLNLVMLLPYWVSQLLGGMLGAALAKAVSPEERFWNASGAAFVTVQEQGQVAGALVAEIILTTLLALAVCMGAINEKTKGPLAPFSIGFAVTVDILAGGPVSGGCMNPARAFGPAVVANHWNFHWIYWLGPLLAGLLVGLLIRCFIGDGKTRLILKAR
# ARF4 (human) = test system: ARF4 (human)
# ARF5 (human) = test system: ARF5 (human)
# ARFIP2 (human) = test system: ARFIP2 (human)
# ARHGAP28 (human) = test system: ARHGAP28 (human)
# ARID3B (human) = test system: ARID3B (human)
# ARL1 (human) = test system: ARL1 (human)
# ARL3 (human) = test system: ARL3 (human)
# ARL5A (human) = test system: ARL5A (human)
# ARL6IP2 (human) = test system: ARL6IP2 (human)
# ARL8B (human) = test system: ARL8B (human)
# ARMC7 (human) = test system: ARMC7 (human)
# ASB11 (human) = test system: ASB11 (human)
sequence,measurement,setting,value
GGGGACAGGGGTATGGGGAGGGG [G4-3 biotinylated (CtG)],binding signal,APOBEC3A,-0.332 z-score
same,binding signal,APOBEC3C,4.77 z-score
same,binding signal,APOC2 (human),-0.319 z-score
same,binding signal,APOH (human),-0.33 z-score
same,binding signal,APP,-0.303 z-score
same,binding signal,APPL2 (human),-0.328 z-score
same,binding signal,AQP5 (human),-0.328 z-score
same,binding signal,AQP8,-0.329 z-score
same,binding signal,ARF4 (human),-0.323 z-score
same,binding signal,ARF5 (human),-0.327 z-score
same,binding signal,ARFIP2 (human),-0.342 z-score
same,binding signal,ARHGAP28 (human),-0.301 z-score
same,binding signal,ARID3B (human),-0.336 z-score
same,binding signal,ARL1 (human),-0.315 z-score
same,binding signal,ARL3 (human),-0.321 z-score
same,binding signal,ARL5A (human),-0.331 z-score
same,binding signal,ARL6IP2 (human),-0.319 z-score
same,binding signal,ARL8B (human),-0.331 z-score
same,binding signal,ARMC7 (human),-0.288 z-score
same,binding signal,ASB11 (human),-0.332 z-score

# An excerpt of these results, tab-delimited.
sequence	measurement	setting	value
GGGGACAGGGGTATGGGGAGGGG [G4-3 biotinylated (CtG)]	binding signal	APOH (human)	-0.33 z-score
same	binding signal	APP	-0.303 z-score
same	binding signal	APPL2 (human)	-0.328 z-score
same	binding signal	AQP5 (human)	-0.328 z-score
